Measurements as given in patent US11944090B2, “Compositions and methods for attracting fire ants” (The United States of America, as represented by The …, priority 2021, dated 2024).

Assay: GC-MS quantification of oxo fatty acids in individual male alates
Parameters: species or system S. invicta
Conditions: reproductive system extract, mean±SE, n=12
Procedure: Sample preparation and chemical analysis: The reproductive system was pulled out from male […] using forceps and placed in a glass insert, crushed using a metal wire, and extracted with 50 μL dichloromethane for at least 2 hours. No sample clean-up was needed. One microliter extraction was injected into the GC-MS. Chemical identification was confirmed by comparing the retention times and mass spectra of samples to those of synthetic standards. For quantification, 4,6-dioxoheptanoic acid was used as an internal standard. Each reproductive system was extracted using 50 μl 0.044 mg/ml 4,6-dioxoheptanoic acid dichloromethane solution. Standard curves were built using a series of 10-oxo-dodecanoic acid and 11-oxo-doedecanoic acid solutions that were prepared using 0.044 mg/ml 4,6-dioxoheptanoic acid dichloromethane solution. The ratios of peak areas of 10-oxo- and 11-oxo-dodecanoic acids to those of the 4,6-dioxoheptanoic acid were used to develop standard curves. Twelve male […], each from a different colony, were used for quantification. Gas Chromatography-Mass Spectrometry (GC-MS): An Agilent 7890A gas chromatograph coupled to an Agilent 5975 mass selective detector (Santa Clara, CA) was used. A DB-5 capillary column (30 m×0.25 mm i.d., 0.25 μm film thickness) was used. […]

Row | SMILES | concentration of fatty acid per ant [ng/ant]
1 | CCC(=O)CCCCCCCCC(=O)O [10-oxo-dodecanoic acid] | 11.09±4.26
2 | CC(=O)CCCCCCCCCC(=O)O [11-oxo-dodecanoic acid] | 10.90±4.18
